Test results published in patent publication US7838231.
No constants are given. Whether binding was seen depends on the method and setting. In cells and extracts the contact can be indirect. Some entries that bind do so weakly or less than the wild type.

How the values were obtained:
[1] = target: T1, endogenous inversin of mouse kidney (mouse) (UniProt O89019); experiment: co-immunoprecipitation, mouse tissue
T1 sequence (looked up): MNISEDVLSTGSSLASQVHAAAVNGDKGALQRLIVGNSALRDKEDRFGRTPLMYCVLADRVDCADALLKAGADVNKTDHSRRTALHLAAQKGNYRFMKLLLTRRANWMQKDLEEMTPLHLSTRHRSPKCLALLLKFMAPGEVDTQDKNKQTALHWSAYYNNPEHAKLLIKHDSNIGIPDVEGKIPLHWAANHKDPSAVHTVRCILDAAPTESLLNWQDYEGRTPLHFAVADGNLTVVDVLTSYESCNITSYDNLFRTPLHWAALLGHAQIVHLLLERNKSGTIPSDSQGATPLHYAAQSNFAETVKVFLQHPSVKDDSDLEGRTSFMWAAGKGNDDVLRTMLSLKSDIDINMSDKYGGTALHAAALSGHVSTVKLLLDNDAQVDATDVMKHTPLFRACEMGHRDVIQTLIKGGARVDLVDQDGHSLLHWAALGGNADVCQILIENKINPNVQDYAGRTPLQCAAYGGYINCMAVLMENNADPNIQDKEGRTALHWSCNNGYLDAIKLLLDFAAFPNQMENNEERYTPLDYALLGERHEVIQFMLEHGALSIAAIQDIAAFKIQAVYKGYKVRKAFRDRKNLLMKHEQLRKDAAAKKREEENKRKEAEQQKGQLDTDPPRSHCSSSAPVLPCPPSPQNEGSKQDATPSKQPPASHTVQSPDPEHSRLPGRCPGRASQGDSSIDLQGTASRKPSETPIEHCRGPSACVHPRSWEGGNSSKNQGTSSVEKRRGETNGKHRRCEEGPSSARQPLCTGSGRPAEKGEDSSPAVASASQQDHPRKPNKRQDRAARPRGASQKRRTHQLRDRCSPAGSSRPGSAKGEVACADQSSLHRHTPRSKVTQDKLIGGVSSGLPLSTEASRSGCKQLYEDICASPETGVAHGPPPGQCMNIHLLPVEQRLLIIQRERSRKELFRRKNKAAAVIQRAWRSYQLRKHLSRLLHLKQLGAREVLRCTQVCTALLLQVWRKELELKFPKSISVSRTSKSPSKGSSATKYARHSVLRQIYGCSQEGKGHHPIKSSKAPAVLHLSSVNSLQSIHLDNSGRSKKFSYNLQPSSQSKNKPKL

[2] = target: T1, endogenous inversin of mouse kidney (mouse); experiment: co-immunoprecipitation of endogenous proteins from mouse kidney lysate with anti-nephrocystin antisera

- binding [1]: binds
- binding [2]: binds
B1: endogenous nephrocystin of mouse kidney (protein, UniProt Q9QY53 1-687, looked up)
chain: MLARRPRDPLQALRRRGQELKLQVDSLVTESQLTGALEPSKRREIYQRCIQLKQAVDENKNTLQKLNKADEAAPVGNYEQRKEEEHSLLEKLACQLQELAVSISRKDALKVEAHSDKEEDDTTEDDEEETGGEEEESEGDGEGKQEQASPKQAETETVTYIALGDFAAQQTGDLTFKKGDVLHIIEKKPDGWWLAKDAEGVEGLIPRTYLEPYNKEDKLESSEGSEEGGEEDGEEDVEVVDETADGAQVKQRTDSHWSAVRKAISEQINTVDVLATMGAIPAGFRPSTLSQLLDEAGNQFRASYFLQPELTTSQLAFRDLTWDAKAGTIMSRPSRVSLILTLWSCKMIPLPGTSIQVLSRHIRLCLFDGSKVLSNIHTVRAVWQPKKPKTWTFSPQVTGILPCLLDGDCFIRSNSSTPDLGILFELGISYIRNSTGERGELSCGWVFLKLFDASGVPIPAKTYELFLNGGTPYEKGVEVDPSVSRRAQGSVFRQMISVRRQPQLLVKLRSLNRRSRAMLSLLPETLVGSMCSAHLLIFYRQILGDVLLRDRTNLQSADLISHPVLATFPLLLEQPDVMDALRSSWSEKESTLKRAEKRDKELLKAEFLLVYHDCVLPLLHSTLLPPFRWAEEETEAARWKAIADFLKQSRENEGSLKALLSPDGVHKPFDLSEQTFDFLGEIRKNSG
